According to article PMC3585324, “InterAKTions with FKBPs - Mutational and Pharmacological Exploration” (PLoS ONE, 2013):
Read-outs that look alike come from different tables or passages of the source. These are yes or no findings as the source states them, for the method shown. For some assays here: In cells and extracts the contact can be indirect. Some entries that bind do so weakly or less than the wild type. For some assays here: Sequences can lack the tags named with a protein. One block for each molecule: values may come before it.

By UniProt entry, the sequences of proteins in these tests, tags left out. Where a name states a change or a piece, a line headed by the entry shows the natural chain unless it says otherwise.
UniProt P68106: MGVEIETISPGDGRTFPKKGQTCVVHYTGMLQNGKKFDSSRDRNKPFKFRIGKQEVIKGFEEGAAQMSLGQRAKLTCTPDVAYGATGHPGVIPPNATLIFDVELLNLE
UniProt P31749: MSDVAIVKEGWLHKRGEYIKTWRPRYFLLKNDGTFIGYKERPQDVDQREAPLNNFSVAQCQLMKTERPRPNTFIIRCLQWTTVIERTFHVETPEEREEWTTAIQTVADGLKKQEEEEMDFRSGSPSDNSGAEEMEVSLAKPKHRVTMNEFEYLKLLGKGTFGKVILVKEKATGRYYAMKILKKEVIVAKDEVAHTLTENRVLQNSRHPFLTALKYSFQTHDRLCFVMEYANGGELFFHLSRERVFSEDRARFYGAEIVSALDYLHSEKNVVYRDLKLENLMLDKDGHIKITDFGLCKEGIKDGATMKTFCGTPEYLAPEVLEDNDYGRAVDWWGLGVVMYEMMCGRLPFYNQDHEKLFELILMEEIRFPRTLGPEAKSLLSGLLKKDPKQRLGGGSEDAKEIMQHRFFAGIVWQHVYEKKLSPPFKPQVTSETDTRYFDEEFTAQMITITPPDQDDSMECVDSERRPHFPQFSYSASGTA
UniProt Q08752: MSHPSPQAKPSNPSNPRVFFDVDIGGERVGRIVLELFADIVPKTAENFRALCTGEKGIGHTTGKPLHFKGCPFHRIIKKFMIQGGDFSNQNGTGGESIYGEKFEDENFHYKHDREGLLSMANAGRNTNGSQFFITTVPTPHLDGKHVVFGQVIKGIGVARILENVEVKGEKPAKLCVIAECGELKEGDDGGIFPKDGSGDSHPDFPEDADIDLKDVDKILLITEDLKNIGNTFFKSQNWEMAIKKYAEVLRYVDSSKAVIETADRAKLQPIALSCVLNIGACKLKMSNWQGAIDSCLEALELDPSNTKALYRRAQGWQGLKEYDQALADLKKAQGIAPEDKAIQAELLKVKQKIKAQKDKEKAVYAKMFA

Assays:
[1] = target: T1, FLAG-tagged FKBP51 (expressed in cells) (UniProt Q13451); assay: co-IP; HEK293T cells co-transfected; lysis in NETN buffer; FLAG or HA affinity resin overnight at 4 °C, 5 washes, Western blot; in some panels cells were treated before lysis with FK1706, FK506 or rapamycin (1 µM, 1 h), AT7867 (10 µM, 1 h), wortmannin, starvation or FCS
T1 sequence: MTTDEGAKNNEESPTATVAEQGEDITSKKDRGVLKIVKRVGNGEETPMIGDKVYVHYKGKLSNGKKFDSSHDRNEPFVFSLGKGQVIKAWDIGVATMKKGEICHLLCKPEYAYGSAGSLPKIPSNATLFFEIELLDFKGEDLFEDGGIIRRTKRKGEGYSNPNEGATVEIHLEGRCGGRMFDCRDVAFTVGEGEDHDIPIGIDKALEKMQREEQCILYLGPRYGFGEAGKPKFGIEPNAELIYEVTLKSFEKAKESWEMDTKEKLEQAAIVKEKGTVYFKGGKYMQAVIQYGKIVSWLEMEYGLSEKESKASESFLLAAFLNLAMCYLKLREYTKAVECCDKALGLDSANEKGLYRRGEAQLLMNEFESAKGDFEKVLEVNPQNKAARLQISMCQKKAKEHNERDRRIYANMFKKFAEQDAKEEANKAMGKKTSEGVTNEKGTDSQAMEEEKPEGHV

[2] = target: T2, FLAG-tagged FKBP51^K352A/R356A (TPR_mut) (UniProt Q13451); assay: as above
T2 sequence: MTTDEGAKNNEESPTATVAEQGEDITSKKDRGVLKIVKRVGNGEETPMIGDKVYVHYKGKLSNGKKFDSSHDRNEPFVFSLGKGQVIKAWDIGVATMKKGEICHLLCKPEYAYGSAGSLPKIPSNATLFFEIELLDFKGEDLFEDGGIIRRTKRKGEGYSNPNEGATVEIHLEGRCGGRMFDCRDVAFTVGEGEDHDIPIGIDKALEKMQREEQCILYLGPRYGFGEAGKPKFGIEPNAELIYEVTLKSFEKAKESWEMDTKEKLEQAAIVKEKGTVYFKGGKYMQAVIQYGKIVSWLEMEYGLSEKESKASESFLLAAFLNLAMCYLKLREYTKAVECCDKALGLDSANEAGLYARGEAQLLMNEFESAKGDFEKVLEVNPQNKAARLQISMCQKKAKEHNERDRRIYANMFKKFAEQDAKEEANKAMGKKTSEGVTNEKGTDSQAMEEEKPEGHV

[3] = target: T3, FLAG-tagged FKBP52 (expressed in cells) (UniProt Q02790); assay: as above
T3 sequence: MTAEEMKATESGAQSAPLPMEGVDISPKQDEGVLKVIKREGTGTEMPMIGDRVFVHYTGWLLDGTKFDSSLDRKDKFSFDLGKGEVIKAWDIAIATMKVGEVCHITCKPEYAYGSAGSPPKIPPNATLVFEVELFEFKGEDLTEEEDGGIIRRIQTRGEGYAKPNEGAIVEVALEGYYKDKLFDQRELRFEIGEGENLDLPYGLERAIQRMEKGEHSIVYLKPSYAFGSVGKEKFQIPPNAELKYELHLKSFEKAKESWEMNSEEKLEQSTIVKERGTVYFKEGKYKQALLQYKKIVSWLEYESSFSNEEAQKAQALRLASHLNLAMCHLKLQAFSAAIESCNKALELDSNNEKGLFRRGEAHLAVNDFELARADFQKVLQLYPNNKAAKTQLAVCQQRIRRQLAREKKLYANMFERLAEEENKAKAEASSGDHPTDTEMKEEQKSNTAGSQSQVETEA

[4] = target: FLAG-tagged FKBP12 (expressed in cells) (UniProt P62942); assay: as above
[5] = target: FLAG-tagged FKBP12.6 (expressed in cells) (UniProt P68106); assay: as above
GST_Akt1^S473D = target: T4, GST_Akt1^S473D (UniProt P31749 1-480, S473D); assay: pull-down; GST pull-down: 15 µM FKBPs or Cyp40 with 22 µM GST_Akt1 S473D or GST_Akt1 S473D_ΔPH on glutathione resin, 3 h, 4 °C, NETN buffer (20 mM Tris-HCl pH 8.0, 100 mM NaCl, 1 mM EDTA, 0.5% igepal); AMP-PNP (5 mM), rapamycin (1 µM) or DMSO where indicated; Western blot; both purified
T4 construct: Akt1 with the phosphomimetic S473D, called constitutively active; also called purified GST-tagged Akt1S473D; GST-tagged active Akt

[6] = target: T1, FLAG-tagged FKBP51 (expressed in cells); assay: co-IP; HEK293T cells co-transfected; lysis in NETN buffer; FLAG or HA affinity resin overnight at 4 °C, 5 washes, Western blot; in some panels cells were treated before lysis with FK1706, FK506 or rapamycin (1 µM, 1 h), AT7867 (10 µM, 1 h), wortmannin, starvation or FCS; remark: listed apart in the source
HA_Akt1 (wild type) = HA_Akt1 (wild type) (UniProt P31749); assay: as above

binding [1]: binds
binding [2]: binds
binding [3]: binds
binding [4]: binds
binding [5]: binds
Molecule: HA_Akt1 (wild type) (from UniProt P31749 1-480)

binding (GST_Akt1^S473D): no binding (tested: 15 µM)
Molecule: purified Cyp40 (from UniProt Q08752 1-370)

binding [2]: binds
Molecule: HA_Akt1 T308D/S473D (from UniProt P31749 1-480)

binding [2]: binds
Molecule: HA_Akt1 S473A (from UniProt P31749 1-480)

binding [6]: binds
B1: HA-tagged PHLPP2 (protein, UniProt Q6ZVD8 1-1323)
chain: MKRNGSRNCLNRRSRFGSRERDWLREDVKRGCVYLYGADTTTATTTTTTSSSSSSSSSSSDLHLVLCTVETPASEICAGEGRESLYLQLHGDLVRRLEPTERPLQIVYDYLSRLGFDDPVRIQEEATNPDLGCMIRFYGEKPCHMDRLDRILLSGIYNVRKGKTQLHKWAERLVVLCGTCLIVSSVKDCQTGKMHILPLVGGKIEEVKRRQYSLAFSSAGAQAQTYHVSFETLAEYQRWQRQASKVVSQRISTVDLSCYSLEEVPEHLFYSQDITYLNLRHNFMQLERPGGLDTLYKFSQLKGLNLSHNKLGLFPILLCEISTLTELNLSCNGFHDLPSQIGNLLNLQTLCLDGNFLTTLPEELGNLQQLSSLGISFNNFSQIPEVYEKLTMLDRVVMAGNCLEVLNLGVLNRMNHIKHVDLRMNHLKTMVIENLEGNKHITHVDLRDNRLTDLDLSSLCSLEQLHCGRNQLRELTLSGFSLRTLYASSNRLTAVNVYPVPSLLTFLDLSRNLLECVPDWACEAKKIEVLDVSYNLLTEVPVRILSSLSLRKLMLGHNHVQNLPTLVEHIPLEVLDLQHNALTRLPDTLFSKALNLRYLNASANSLESLPSACTGEESLSMLQLLYLTNNLLTDQCIPVLVGHLHLRILHLANNQLQTFPASKLNKLEQLEELNLSGNKLKTIPTTIANCKRLHTLVAHSNNISIFPEILQLPQIQFVDLSCNDLTEILIPEALPATLQDLDLTGNTNLVLEHKTLDIFSHITTLKIDQKPLPTTDSTVTSTFWSHGLAEMAGQRNKLCVSALAMDSFAEGVGAVYGMFDGDRNEELPRLLQCTMADVLLEEVQQSTNDTVFMANTFLVSHRKLGMAGQKLGSSALLCYIRPDTADPASSFSLTVANVGTCQAVLCRGGKPVPLSKVFSLEQDPEEAQRVKDQKAIITEDNKVNGVTCCTRMLGCTYLYPWILPKPHISSTPLTIQDELLILGNKALWEHLSYTEAVNAVRHVQDPLAAAKKLCTLAQSYGCQDNVGAMVVYLNIGEEGCTCEMNGLTLPGPVGFASTTTIKDAPKPATPSSSSGIASEFSSEMSTSEVSSEVGSTASDEHNAGGLDTALLPRPERRCSLHPTPTSGLFQRQPSSATFSSNQSDNGLDSDDDQPVEGVITNGSKVEVEVDIHCCRGRDLENSPPLIESSPTLCSEEHARGSCFGIRRQNSVNSGMLLPMSKDRMELQKSPSTSCLYGKKLSNGSIVPLEDSLNLIEVATEVPKRKTGYFAAPTQMEPEDQFVVPHDLEEEVKEQMKQHQDSRLEPEPHEEDRTEPPEEFDTAL

binding (HA_Akt1 (wild type)): binds
B2: FKBP51ΔFK1FK2_FLAG (expressed in cells) (domain or fragment, UniProt Q13451 259-457)
chain: MDTKEKLEQAAIVKEKGTVYFKGGKYMQAVIQYGKIVSWLEMEYGLSEKESKASESFLLAAFLNLAMCYLKLREYTKAVECCDKALGLDSANEKGLYRRGEAQLLMNEFESAKGDFEKVLEVNPQNKAARLQISMCQKKAKEHNERDRRIYANMFKKFAEQDAKEEANKAMGKKTSEGVTNEKGTDSQAMEEEKPEGHV

binding (HA_Akt1 (wild type)): binds
B3: purified FKBP51 ΔFK1_FLAG (domain or fragment, UniProt Q13451 143-457, looked up)
chain: FEDGGIIRRTKRKGEGYSNPNEGATVEIHLEGRCGGRMFDCRDVAFTVGEGEDHDIPIGIDKALEKMQREEQCILYLGPRYGFGEAGKPKFGIEPNAELIYEVTLKSFEKAKESWEMDTKEKLEQAAIVKEKGTVYFKGGKYMQAVIQYGKIVSWLEMEYGLSEKESKASESFLLAAFLNLAMCYLKLREYTKAVECCDKALGLDSANEKGLYRRGEAQLLMNEFESAKGDFEKVLEVNPQNKAARLQISMCQKKAKEHNERDRRIYANMFKKFAEQDAKEEANKAMGKKTSEGVTNEKGTDSQAMEEEKPEGHV
notes: FKBP51 without the FK1 domain; It was the only construct not checked by active site titration; also called FKBP51 ΔFK1 construct; pProExHta_ΔFK1; source: purified
